Results deposited as PubChem BioAssay AID1259331 (Drosophila RNAi Screening Center, 2017)
Test: 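Fly transmembrane-protein genes that affect zinc toxicity in cultured cells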 (primary screen). Cells: Drosophila S2R+ cells. Reagents: long dsRNA against Drosophila genes. Duration: 5 days (4 days knock-down, then 1 day zinc). Challenge: zinc chloride at 15 mM final level for 1 day. Read-out: 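Luminescent ATP assay standing in for viability; Z score is the mean over three replicate plates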. Reading the numbers: mean Z score: higher = more ATP than other wells, better survival under zinc; ATP luminescence: higher = more ATP, more viable cells. Active means: 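Hit when the absolute Z score is greater than 1.5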. Meaning of the calls: active = hit, ATP up or down; inactive = not a hit.
The deposit covers about 3,100 reagents; this is a part drawn at random. 126 of all reagents (4.1%) count as active. 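Calls are per reagent; zinc was so toxic that few knock-downs lowered ATP further, so most hits raise ATP.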 Raw values are not corrected between plates. A number with no mark means an inactive call. Names joined by + are all predicted targets of the reagent. Not given: the amount of reagent.

gene knocked down	DRSC id	mean Z score	ATP luminescence, replicate 1	ATP luminescence, replicate 2
otk2	DRSC07303	-0.0569	74283	74078
botv	DRSC05949	-0.577	26314	25348
botv	DRSC28034	-0.242	56845	57185
bdg	DRSC07136	0.19	34764	33027
Tango9	DRSC14173	0.0962	44981	47429
Ir52a	DRSC06262	0.344	70133	80012
CG11099	DRSC06034	0.272	73014	78623
Tmc	DRSC10356	0.22	82554	63084
SERCA	DRSC04600	-0.408	24765	31245
SERCA	DRSC26195	0.583	55350	61504
CR12628 + Mgstl	DRSC03702	-0.0617	67029	62981
CR12628 + Mgstl	DRSC20568	0.836	44738	39936
SdhC	DRSC16088	-0.309	31879	52675
SdhC	DRSC39835	0.0785	52315	62656
CG12490 + CG30265	DRSC25712	-0.0936	54716	61592
Grl65a	DRSC08837	-0.0513	41822	45885
Grl65a	DRSC25986	-0.193	49263	51595
Gr68a	DRSC10803	-0.184	81916	53481
Gr68a	DRSC39819	-0.114	52965	56362
Tsp97E	DRSC16019	-0.672	36842	38376
Tsp97E	DRSC28053	-0.129	55788	54664
Ork1	DRSC20266	-0.156	42902	48237
Ork1	DRSC39464	0.0411	50471	49034
CG17752	DRSC15262	0.155	38513	57614
CG17752	DRSC26265	0.648	59775	68709
CG14856	DRSC14980	-0.272	36199	52452
CG8916	DRSC20120	0.0541	65880	68035
CG8916	DRSC39685	-0.302	57339	53601
CG4301	DRSC19886	0.0832	67886	66961
CG4301	DRSC39420	-0.417	49075	45080
Gr92a	DRSC21631	0.217	49143	50887
Gr92a	DRSC39582	-0.519	50315	52744
CG5554	DRSC04513	-0.172	52281	40571
CG5554	DRSC25559	-0.014	58055	52984
wun	DRSC07719	0.461	34816	33216
wun	DRSC36710	0.429	53790	52127
wun	DRSC36711	-0.327	45560	40513
Cralbp + PGRP-LD + Pmi	DRSC09743	3 (active)	1.40e5	1.05e5
Gr36b	DRSC21637	0.212	58043	44497
Gr36b	DRSC29818	0.0987	50481	48526

In a second layout: results already given
{"gene knocked down": "CR12628 + Mgstl", "DRSC id": "DRSC20568", "mean Z score": 0.836, "ATP luminescence, replicate 1": 44738, "ATP luminescence, replicate 2": 39936}
{"gene knocked down": "SdhC", "DRSC id": "DRSC16088", "mean Z score": -0.309, "ATP luminescence, replicate 1": 31879, "ATP luminescence, replicate 2": 52675}
{"gene knocked down": "SdhC", "DRSC id": "DRSC39835", "mean Z score": 0.0785, "ATP luminescence, replicate 1": 52315, "ATP luminescence, replicate 2": 62656}

Further reagents follow:
gene knocked down	DRSC id	mean Z score	ATP luminescence, replicate 1	ATP luminescence, replicate 2
PGRP-SC2	DRSC06481	-0.0657	37759	45726
PGRP-SC2	DRSC25449	0.17	59723	59603
CG13978	DRSC14720	-0.236	65485	58728
ACXE	DRSC00847	0.031	49589	38925
CG2187	DRSC15425	0.538	75210	74729
CG2187	DRSC25548	0.00862	61747	61301
CG6282	DRSC29524	0.00398	63306	59569
Ugalt	DRSC18467	-0.808	53207	52075
MRP	DRSC02942	-0.45	47840	52013
MRP	DRSC39503	-0.161	47566	46417
fra	DRSC07621	0.0771	60615	78828
bon + CG15923	DRSC39557	-0.541	54150	41462
ATP6AP2	DRSC16420	0.121	36559	62977
ATP6AP2	DRSC39882	0.556	57751	71231
CG5885	DRSC02910	2.66 (active)	92758	94891
CG5885	DRSC28761	1.04	75294	79446
bark	DRSC00635	-0.13	50703	43942
bark	DRSC27011	0.0622	54750	65645
SIFaR	DRSC13467	0.515	38393	69601
SIFaR	DRSC14266	-0.179	36387	55251
Gr5a	DRSC18085	-0.459	58111	58780
Elo68beta	DRSC09860	-0.372	71453	50755
nac	DRSC16520	-0.391	38050	53519
CG9664	DRSC00725	-0.243	49246	56551
wus	DRSC20278	-0.612	38273	38839
wus	DRSC39483	1.2	67989	60855
CG33233	DRSC08239	-0.187	65588	66428
CG33233	DRSC39585	-0.4	53516	53979
